Data as given in PubChem BioAssay AID504764 (Drosophila RNAi Screening Center, 2011).
The deposit covers about 22,000 reagents; below is an unselected part of those with a known target gene and a result. Over the whole deposit, 403 (1.9%) were called active. 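Unnormalised raw counts per well; ratio z-scores behind the hit calls and whether each hit raises or lowers signal are not deposited.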 Reagents against one gene are numbered here. Not stated in the record: the amount of reagent.

Purpose: 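Genes whose knock-down alters Notch-dependent transcription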 (primary screen)
Cell system: Drosophila Kc167 cells
Reagents: long dsRNA against Drosophila genes
Time to read-out: about 5 days (4 days dsRNA, then 24 h after transfection)
Challenge: transfection of constitutively active membrane-tethered Notch lacking the extracellular domain, read 24 h later
Read-out: 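Light from a Notch-responsive E(spl)m3 luciferase reporter under active Notch, with control-promoter and no-Notch reporter wells to normalise; raw counts from paired wells a and b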
Reading the numbers: induced reporter light, run 1, well a and induced reporter light, run 1, well b: higher = more light from the Notch target reporter with active Notch; control promoter light, run 1, well a and control promoter light, run 1, well b: higher = more light from the viral control promoter (cell number, transfection, viability); uninduced reporter light, run 1, well a: higher = more light from the Notch target reporter without active Notch
Active means: 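Hit if the duplicate-averaged log2 ratio of induced to control-promoter light gives a plate-wise z beyond ±2, or induced to uninduced beyond ±1.8; weak-control or discordant-duplicate wells dropped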
Meaning of the calls: active = modifier hit (raised or lowered Notch signal); inactive = not a hit

no.	gene	reagent no.	induced reporter light, run 1, well a	induced reporter light, run 1, well b	control promoter light, run 1, well a	control promoter light, run 1, well b	uninduced reporter light, run 1, well a	activity call
1	CG6153	1	2.22e5	1.95e5	1.88e5	2.10e5	15305	inactive
2	scat	1	2.17e5	2.18e5	1.53e5	1.68e5	16365	inactive
3	dally	1	2.15e5	1.73e5	2.23e5	2.04e5	13042	inactive
4	dally	2	1.59e5	1.23e5	1.03e5	50560	10350	inactive
5	RYa-R	1	1.85e5	1.88e5	2.99e5	2.74e5	16220	inactive
6	plum	1	2.25e5	2.08e5	2.52e5	3.08e5	14235	inactive

Sorted by “uninduced reporter light, run 1, well a” (ascending): some entries from above
gene	reagent no.	induced reporter light, run 1, well a	induced reporter light, run 1, well b	control promoter light, run 1, well a	control promoter light, run 1, well b	uninduced reporter light, run 1, well a	activity call
plum	1	2.25e5	2.08e5	2.52e5	3.08e5	14235	inactive
RYa-R	1	1.85e5	1.88e5	2.99e5	2.74e5	16220	inactive

Next entries follow.
no.	gene	reagent no.	induced reporter light, run 1, well a	induced reporter light, run 1, well b	control promoter light, run 1, well a	control promoter light, run 1, well b	uninduced reporter light, run 1, well a	activity call
7	Dora	1	48060	53300	43540	50380	11305	inactive
8	Dora	2	82855	1.02e5	66255	80745	11020	inactive
9	Dora	3	75060	92940	72555	86405	10350	inactive
10	Dora	4	21388	23370	12665	11350	7645	inactive
11	CG14411	1	76065	85655	85955	96325	13145	inactive
12	CG14696	1	96970	97100	91115	60385	6570	inactive
13	Mtl	1	1.82e5	1.09e5	2.34e5	2.00e5	13325	inactive
14	Tap42	1	1.46e5	1.54e5	1.72e5	2.03e5	12390	inactive
15	CG18605	1	93760	66670	78105	67050	6700	inactive
16	CG7506	1	1.67e5	1.21e5	1.28e5	99295	16978	inactive
17	Acox57D-d	1	1.13e5	95210	75195	67300	6740	inactive
18	pad	1	1.87e5	2.19e5	1.79e5	1.91e5	16920	inactive
19	Cyp318a1	1	1.40e5	1.23e5	2.32e5	2.22e5	9440	inactive
20	LManV	1	1.70e5	1.85e5	1.82e5	1.98e5	14355	inactive
